# Experimental data taken from the supplement of paper PMC8728848.
# The other results are listed elsewhere or left out.
# B1: SAOUHSC 02783 (Staphylococcus aureus), Q5HD69 (protein)
# chain: MIHSKKLTLGICLVLLIILIVGYVIMTKTNGRNAQIKDTFNQTLKLYPTKNLDDFYDKEGFRDQEFKKGDKGTWIVNSEMVIEPKGKDMETRGMVLYINRNTRTTKGYYFISEMTDDSNGRPKDDEKRYPVKMEHNKIIPTKPLPNDKLKKEIENFKFFVQYGNFKDINDYKDGDISYNPNVPSYSAKYQLNNDDYNVQQLRKRYDIPTKQAPKLLLKGDGDLKGSSVGSRSLEFTFVENKEENIYFTDSVQYTPSEDTRYESN
# Key:
# Test in all cases: glycan array binding signal (z-score within array); higher = stronger binding
# Settings in all cases: glycan notation: IUPAC condensed, linker removed
# [1] = biological target: Neu5Ac(a2-3)Gal(b1-3)GlcNAc6S
# How it was run: (§1)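 Arrays were curated from the Consortium for Functional Glycomics database, 3228 in total, and kept only where the protein sequence was available. Binding is expressed as a within-array Z-score. This score was averaged across arrays of the same protein sequence at different concentrations or buffers and across linkers, and negative values can be read as non-binding.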
# [2] = biological target: Neu5Ac(a2-3)Gal(b1-3)[Fuc(a1-4)]GlcNAc
# How it was run: as §1
# [3] = biological target: Neu5Ac(a2-3)Gal(b1-3)[Fuc(a1-4)]GlcNAc(b1-3)Gal(b1-3)[Fuc(a1-4)]GlcNAc
# How it was run: as §1
# [4] = biological target: Neu5Ac(a2-3)Gal(b1-3)[Fuc(a1-4)]GlcNAc(b1-3)Gal(b1-4)[Fuc(a1-3)]GlcNAc
# How it was run: as §1
# [5] = biological target: Neu5Ac(a2-3)Gal(b1-3)[GlcNAc(b1-6)]GalNAc
# How it was run: as §1
# [6] = biological target: Neu5Ac(a2-3)Gal(b1-3)[Neu5Ac(a2-6)]GalNAc
# How it was run: as §1
# [7] = biological target: Neu5Ac(a2-3)Gal(b1-3)[Neu5Ac(a2-6)]GlcNAc(b1-3)[Fuc(a1-3)[Gal(b1-4)]GlcNAc(b1-6)]Gal(b1-4)Glc
# How it was run: as §1
# [8] = biological target: Neu5Ac(a2-3)Gal(b1-3)]Neu5Ac(a2-3)Gal(b1-4)]GlcNAc
# How it was run: as §1
# Neu5Ac(a2-3)Gal(b1-4)Glc = biological target: Neu5Ac(a2-3)Gal(b1-4)Glc
# How it was run: as §1
# [9] = biological target: Neu5Ac(a2-3)Gal(b1-4)GlcNAc
# How it was run: as §1
# [10] = biological target: Neu5Ac(a2-3)Gal(b1-4)GlcNAc(b1-2)Man
# How it was run: as §1
# [11] = biological target: Neu5Ac(a2-3)Gal(b1-4)GlcNAc(b1-2)Man(a1-3)[GlcNAc(b1-4)][Neu5Ac(a2-3)Gal(b1-4)GlcNAc(b1-2)Man(a1-6)]Man(b1-4)GlcNAc(b1-4)GlcNAc
# How it was run: as §1
# [12] = biological target: Neu5Ac(a2-3)Gal(b1-4)GlcNAc(b1-2)Man(a1-3)[Neu5Ac(a2-3)Gal(b1-4)GlcNAc(b1-2)Man(a1-6)]Man(b1-4)GlcNAc(b1-4)GlcNAc
# How it was run: as §1
# [13] = biological target: Neu5Ac(a2-3)Gal(b1-4)GlcNAc(b1-2)Man(a1-3)[Neu5Ac(a2-3)Gal(b1-4)GlcNAc(b1-2)Man(a1-6)]Man(b1-4)GlcNAc(b1-4)[Fuc(a1-6)]GlcNAc
# How it was run: as §1
# [14] = biological target: Neu5Ac(a2-3)Gal(b1-4)GlcNAc(b1-2)Man(a1-3)[Neu5Ac(a2-6)Gal(b1-4)GlcNAc(b1-2)Man(a1-6)]Man(b1-4)GlcNAc(b1-4)GlcNAc
# How it was run: as §1
# [15] = biological target: Neu5Ac(a2-3)Gal(b1-4)GlcNAc(b1-2)[Neu5Ac(a2-3)Gal(b1-4)GlcNAc(b1-4)]Man(a1-3)[GlcNAc(b1-4)][Neu5Ac(a2-3)Gal(b1-4)GlcNAc(b1-2)[Neu5Ac(a2-3)Gal(b1-4)GlcNAc(b1-6)]Man(a1-6)]Man(b1-4)GlcNAc(b1-4)GlcNAc
# How it was run: as §1
# [16] = biological target: Neu5Ac(a2-3)Gal(b1-4)GlcNAc(b1-2)[Neu5Ac(a2-3)Gal(b1-4)GlcNAc(b1-4)]Man(a1-3)[GlcNAc(b1-4)][Neu5Ac(a2-3)Gal(b1-4)GlcNAc(b1-4)Man(a1-6)]Man(b1-4)GlcNAc(b1-4)GlcNAc
# How it was run: as §1
# [17] = biological target: Neu5Ac(a2-3)Gal(b1-4)GlcNAc(b1-2)[Neu5Ac(a2-3)Gal(b1-4)GlcNAc(b1-6)]Man(a1-6)[Neu5Ac(a2-3)Gal(b1-4)GlcNAc(b1-2)Man(a1-3)][GlcNAc(b1-4)]Man(b1-4)GlcNAc(b1-4)GlcNAc
# How it was run: as §1
# [18] = biological target: Neu5Ac(a2-3)Gal(b1-4)GlcNAc(b1-3)Gal
# How it was run: as §1
# [19] = biological target: Neu5Ac(a2-3)Gal(b1-4)GlcNAc(b1-3)Gal(b1-3)GlcNAc
# How it was run: as §1
# [20] = biological target: Neu5Ac(a2-3)Gal(b1-4)GlcNAc(b1-3)Gal(b1-4)GlcNAc
# How it was run: as §1
# [21] = biological target: Neu5Ac(a2-3)Gal(b1-4)GlcNAc(b1-3)Gal(b1-4)GlcNAc(b1-2)Man(a1-3)[Neu5Ac(a2-3)Gal(b1-4)GlcNAc(b1-3)Gal(b1-4)GlcNAc(b1-2)Man(a1-6)]Man(b1-4)GlcNAc(b1-4)GlcNAc
# How it was run: as §1
# [22] = biological target: Neu5Ac(a2-3)Gal(b1-4)GlcNAc(b1-3)Gal(b1-4)GlcNAc(b1-3)Gal(b1-4)GlcNAc
# How it was run: as §1
# [23] = biological target: Neu5Ac(a2-3)Gal(b1-4)GlcNAc(b1-3)Gal(b1-4)GlcNAc(b1-3)Gal(b1-4)GlcNAc(b1-2)Man(a1-3)[Neu5Ac(a2-3)Gal(b1-4)GlcNAc(b1-3)Gal(b1-4)GlcNAc(b1-3)Gal(b1-4)GlcNAc(b1-2)Man(a1-6)]GalNAc
# How it was run: as §1
# [24] = biological target: Neu5Ac(a2-3)Gal(b1-4)GlcNAc(b1-3)Gal(b1-4)GlcNAc(b1-3)GalNAc
# How it was run: as §1
# [25] = biological target: Neu5Ac(a2-3)Gal(b1-4)GlcNAc(b1-3)Gal(b1-4)GlcNAc(b1-3)[Neu5Ac(a2-3)Gal(b1-4)GlcNAc(b1-3)Gal(b1-4)GlcNAc(b1-6)]GalNAc
# How it was run: as §1
# [26] = biological target: Neu5Ac(a2-3)Gal(b1-4)GlcNAc(b1-3)Gal(b1-4)GlcNAc(b1-6)[Gal(b1-3)]GalNAc
# How it was run: as §1
# [27] = biological target: Neu5Ac(a2-3)Gal(b1-4)GlcNAc(b1-3)Gal(b1-4)[Fuc(a1-3)]GlcNAc
# How it was run: as §1
# [28] = biological target: Neu5Ac(a2-3)Gal(b1-4)GlcNAc(b1-3)GalNAc
# How it was run: as §1
# [29] = biological target: Neu5Ac(a2-3)Gal(b1-4)GlcNAc(b1-3)[Neu5Ac(a2-3)Gal(b1-4)GlcNAc(b1-6)]GalNAc
# How it was run: as §1
binder,measurement,setting,value
B1,glycan array binding signal (z-score),[1],-0.737
same,glycan array binding signal (z-score),[2],-0.361
same,glycan array binding signal (z-score),[3],-0.391
same,glycan array binding signal (z-score),[4],0.308
same,glycan array binding signal (z-score),[5],0.251
same,glycan array binding signal (z-score),[6],0.042
same,glycan array binding signal (z-score),[7],0.955
same,glycan array binding signal (z-score),[8],1.61
same,glycan array binding signal (z-score),Neu5Ac(a2-3)Gal(b1-4)Glc,-0.093
same,glycan array binding signal (z-score),[9],0.134
same,glycan array binding signal (z-score),[10],0.804
same,glycan array binding signal (z-score),[11],1.05
same,glycan array binding signal (z-score),[12],0.306
same,glycan array binding signal (z-score),[13],0.516
same,glycan array binding signal (z-score),[14],0.096
same,glycan array binding signal (z-score),[15],0.399
same,glycan array binding signal (z-score),[16],0.63
same,glycan array binding signal (z-score),[17],-0.967
same,glycan array binding signal (z-score),[18],0.928
same,glycan array binding signal (z-score),[19],0.634
same,glycan array binding signal (z-score),[20],-0.623
same,glycan array binding signal (z-score),[21],-1
same,glycan array binding signal (z-score),[22],-1.2
same,glycan array binding signal (z-score),[23],0.617
same,glycan array binding signal (z-score),[24],-0.44
same,glycan array binding signal (z-score),[25],-0.068
same,glycan array binding signal (z-score),[26],-0.542
same,glycan array binding signal (z-score),[27],-0.998
same,glycan array binding signal (z-score),[28],-0.874
same,glycan array binding signal (z-score),[29],1.4

# No new results follow: an excerpt of the list.
binder,measurement,setting,value
B1,glycan array binding signal (z-score),[13],0.516
same,glycan array binding signal (z-score),[14],0.096
